Assay results from paper PMC6771824.
No constants are given. Whether binding was seen depends on the method and setting. For some assays here: In cells and extracts the contact can be indirect. Some results given as binding are weak or reduced against the parent protein; the word gives no strength.

T1: RING1B (human), Q99496
T1 chain: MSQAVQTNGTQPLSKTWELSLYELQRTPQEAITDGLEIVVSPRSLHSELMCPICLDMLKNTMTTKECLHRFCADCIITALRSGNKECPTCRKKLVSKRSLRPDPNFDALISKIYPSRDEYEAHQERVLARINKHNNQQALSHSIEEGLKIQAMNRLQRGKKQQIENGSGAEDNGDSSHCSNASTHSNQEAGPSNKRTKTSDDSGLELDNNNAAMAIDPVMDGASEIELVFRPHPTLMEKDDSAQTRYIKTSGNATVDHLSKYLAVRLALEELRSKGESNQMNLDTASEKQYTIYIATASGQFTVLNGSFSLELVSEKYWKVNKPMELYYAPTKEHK

B1: PCGF2 (protein, UniProt P35227 1-344)
chain: MHRTTRIKITELNPHLMCALCGGYFIDATTIVECLHSFCKTCIVRYLETNKYCPMCDVQVHKTRPLLSIRSDKTLQDIVYKLVPGLFKDEMKRRRDFYAAYPLTEVPNGSNEDRGEVLEQEKGALSDDEIVSLSIEFYEGARDRDEKKGPLENGDGDKEKTGVRFLRCPAAMTVMHLAKFLRNKMDVPSKYKVEVLYEDEPLKEYYTLMDIAYIYPWRRNGPLPLKYRVQPACKRLTLATVPTPSEGTNTSGASECESVSDKAPSPATLPATSSSLPSPATPSHGSPSSHGPPATHPTSPTPPSTASGATTAANGGSLNCLQTPSSTSRGRKMTVNGAPVPPLT
B2: RING1B, Q99496 1-336 (enzyme)
chain: T1 chain

What was measured:
[1] = target: RING1B (human) (UniProt Q99496); assay: cross-linking; about 50 ug of purified isolated heterodimers (RING1B-PCGF2; RING1B-ΔPHC2), each cross-linked with H12/D12 DSS, 37 °C, 30 min; LC-MS/MS, xQuest/xProphet, FDR 0.05; both purified
[2] = target: RING1B (human) (UniProt Q99496); assay: cross-linking; about 50 ug of purified ΔPRC1.2 (four subunits) cross-linked with H12/D12 DSS, 37 °C, 30 min; lysine-lysine links, Cα-Cα maximum distance 27 Å; LC-MS/MS, xQuest/xProphet, FDR 0.05; both purified
[3] = target: RING1B (human) (UniProt Q99496); assay: SEC; subunits co-expressed in Sf21 cells; strep-tactin affinity by strep-tagged RING1B, then S200 16/600 and S200 10/300 in HEPES 50 mM pH 8, NaCl 150 mM, 1 mM DTT; subunits identified by SDS/PAGE and peptide mass fingerprinting mass spectrometry
[4] = target: RING1B (human) (UniProt Q99496); assay: pull-down; PRC1.2 and PRC1.4 subunits co-expressed in Sf21 cells (MultiBac); strep-tagged RING1B as bait on strep-tactin resin; HEPES 50 mM pH 8, NaCl 150 mM, 1 mM DTT; SDS/PAGE
[5] = target: T1, RING1B (human), Q99496; assay: SEC; Superdex 200 10/300; RING1B-PCGF2 sample with an extra peak at Ve ~ 14.1 mL beside the main peak at Ve ~ 12.2 mL; both purified; conditions: remark: other sources report otherwise

| Binder | binding [1] | binding [2] | binding [3] | binding [4] | binding [5] |
| --- | --- | --- | --- | --- | --- |
| B1 | binds | binds | binds | binds |  |
| B2 |  |  |  |  | no binding |
